PubChem BioAssay AID1259424, University of Nebraska Medical Center – 2018
This is one part, drawn at random, of about 14,000 reagents tested. 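Higher correlation or smaller distance means closer resemblance to KSR1 loss; control wells, including KSR1 knockdowns, recur on many plates.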 Further read-outs or replicates are left out here. Not given: the time to read-out.

Assay: 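Find knockdowns that reproduce the expression shifts seen after KSR1 loss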 (primary screen)
Cells: human HCT116 colon cancer cells
Reagents: siRNA pool against human genes, 50 nM
Measured: 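Log2 levels of six mRNAs (branched-DNA multiplex), adjusted by two reference genes and the non-targeting median, then scored against the average KSR1 knockdown pattern as Pearson r and euclidean distance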
Reading the numbers: mean correlation with KSR1 profile: higher = expression change more like KSR1 knockdown; mean distance from KSR1 profile: higher = expression change less like KSR1 knockdown

HNRNPA2B1 → mean correlation with KSR1 profile: -0.192; mean distance from KSR1 profile: 2.9
MLXIPL → mean correlation with KSR1 profile: 0.267; mean distance from KSR1 profile: 2.39
KCNK2 → mean correlation with KSR1 profile: 0.284; mean distance from KSR1 profile: 1.27
TNRC6C → mean correlation with KSR1 profile: -0.673; mean distance from KSR1 profile: 2.24
NDRG4 → mean correlation with KSR1 profile: 0.244; mean distance from KSR1 profile: 3.88
LOX → mean correlation with KSR1 profile: 0.521; mean distance from KSR1 profile: 0.887
PEX11A → mean correlation with KSR1 profile: -0.386; mean distance from KSR1 profile: 2.01
CSN1S1 → mean correlation with KSR1 profile: -0.714; mean distance from KSR1 profile: 2.3
IER5 → mean correlation with KSR1 profile: 0.574; mean distance from KSR1 profile: 0.868
NDST2 → mean correlation with KSR1 profile: 0.078; mean distance from KSR1 profile: 2.23
RPS24 → mean correlation with KSR1 profile: 0.123; mean distance from KSR1 profile: 1.54
TOP3B → mean correlation with KSR1 profile: 0.563; mean distance from KSR1 profile: 3.73
ANKRD27 → mean correlation with KSR1 profile: 0.664; mean distance from KSR1 profile: 2.35
CTSL → mean correlation with KSR1 profile: -0.0812; mean distance from KSR1 profile: 2.44
LENG8 → mean correlation with KSR1 profile: -0.407; mean distance from KSR1 profile: 2.55
NFKBIE → mean correlation with KSR1 profile: -0.245; mean distance from KSR1 profile: 3.18
CAPZA1 → mean correlation with KSR1 profile: 0.23; mean distance from KSR1 profile: 1.68
IWS1 → mean correlation with KSR1 profile: -0.373; mean distance from KSR1 profile: 2.21
SFRP1 → mean correlation with KSR1 profile: 0.524; mean distance from KSR1 profile: 1.75
PNOC → mean correlation with KSR1 profile: 0.704; mean distance from KSR1 profile: 0.969
CD40LG → mean correlation with KSR1 profile: -0.43; mean distance from KSR1 profile: 1.53
FBXL6 → mean correlation with KSR1 profile: -0.0811; mean distance from KSR1 profile: 3.25
FRMD1 → mean correlation with KSR1 profile: 0.669; mean distance from KSR1 profile: 2.42
NEO1 → mean correlation with KSR1 profile: 0.527; mean distance from KSR1 profile: 2.3
TCTN2 → mean correlation with KSR1 profile: 0.512; mean distance from KSR1 profile: 1.49
FHIP1B → mean correlation with KSR1 profile: 0.635; mean distance from KSR1 profile: 1.69
STRAP → mean correlation with KSR1 profile: -0.122; mean distance from KSR1 profile: 1.52
BPGM → mean correlation with KSR1 profile: -0.112; mean distance from KSR1 profile: 2.74
